The list shows a part of the results.
What follows are targets tested with c1cn2cc(-c3ccc4cn[nH]c4c3)nc(Nc3ccc(N4CCOCC4)cc3)c2n1 [entospletinib] (assay: log2 fold change, soluble protein after heating vs DMSO (PISA); higher = thermal stabilisation; K562 lysate, 10 uM; active = over 0.2 and 3.5 SD of the protein, either way, in both replicates (recomputed)).
Summary of the method: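 Log-two fold change in thermal stability relative to solvent controls is reported from duplicates. For each sample, crude K562 extract from dounce-homogenised pellets in PBS pH 7.4 with 1 mM MgCl2, at 1 mg/mL protein, was treated with 10 μM compound for 30 min. Aliquots heated for 3 min across 48°C-58°C were pooled, brought to 0.5% NP-40 at 4°C and cleared at 21,000xg for 90 min. The supernatant was quantified by TMTpro 16plex LC-MS/MS with channel sums equalised.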

Chains of the proteins cited; added tags and fusions are not shown. Lines headed by an entry give the natural chain unless they say otherwise; changes in a name come on top.
UniProt P42575: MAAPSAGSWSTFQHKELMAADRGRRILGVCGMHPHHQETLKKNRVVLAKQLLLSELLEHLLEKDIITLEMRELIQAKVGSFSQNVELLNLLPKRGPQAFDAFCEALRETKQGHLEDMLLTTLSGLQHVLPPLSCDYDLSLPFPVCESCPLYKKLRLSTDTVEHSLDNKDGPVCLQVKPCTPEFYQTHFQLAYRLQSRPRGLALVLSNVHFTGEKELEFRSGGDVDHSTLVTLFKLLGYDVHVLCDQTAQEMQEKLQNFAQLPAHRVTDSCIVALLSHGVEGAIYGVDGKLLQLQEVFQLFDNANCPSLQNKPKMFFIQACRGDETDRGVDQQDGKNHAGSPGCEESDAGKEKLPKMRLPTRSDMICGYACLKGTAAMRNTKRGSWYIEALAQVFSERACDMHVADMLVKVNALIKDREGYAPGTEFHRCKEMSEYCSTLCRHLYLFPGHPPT
UniProt P24863: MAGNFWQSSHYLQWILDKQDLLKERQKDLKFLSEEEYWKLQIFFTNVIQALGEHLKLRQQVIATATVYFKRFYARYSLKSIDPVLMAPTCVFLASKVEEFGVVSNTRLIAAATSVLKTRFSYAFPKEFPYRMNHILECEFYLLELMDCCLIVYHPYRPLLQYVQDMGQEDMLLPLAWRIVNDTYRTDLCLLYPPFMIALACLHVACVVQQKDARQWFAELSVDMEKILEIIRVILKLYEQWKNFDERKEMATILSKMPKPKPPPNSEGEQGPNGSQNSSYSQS
UniProt Q8IX12: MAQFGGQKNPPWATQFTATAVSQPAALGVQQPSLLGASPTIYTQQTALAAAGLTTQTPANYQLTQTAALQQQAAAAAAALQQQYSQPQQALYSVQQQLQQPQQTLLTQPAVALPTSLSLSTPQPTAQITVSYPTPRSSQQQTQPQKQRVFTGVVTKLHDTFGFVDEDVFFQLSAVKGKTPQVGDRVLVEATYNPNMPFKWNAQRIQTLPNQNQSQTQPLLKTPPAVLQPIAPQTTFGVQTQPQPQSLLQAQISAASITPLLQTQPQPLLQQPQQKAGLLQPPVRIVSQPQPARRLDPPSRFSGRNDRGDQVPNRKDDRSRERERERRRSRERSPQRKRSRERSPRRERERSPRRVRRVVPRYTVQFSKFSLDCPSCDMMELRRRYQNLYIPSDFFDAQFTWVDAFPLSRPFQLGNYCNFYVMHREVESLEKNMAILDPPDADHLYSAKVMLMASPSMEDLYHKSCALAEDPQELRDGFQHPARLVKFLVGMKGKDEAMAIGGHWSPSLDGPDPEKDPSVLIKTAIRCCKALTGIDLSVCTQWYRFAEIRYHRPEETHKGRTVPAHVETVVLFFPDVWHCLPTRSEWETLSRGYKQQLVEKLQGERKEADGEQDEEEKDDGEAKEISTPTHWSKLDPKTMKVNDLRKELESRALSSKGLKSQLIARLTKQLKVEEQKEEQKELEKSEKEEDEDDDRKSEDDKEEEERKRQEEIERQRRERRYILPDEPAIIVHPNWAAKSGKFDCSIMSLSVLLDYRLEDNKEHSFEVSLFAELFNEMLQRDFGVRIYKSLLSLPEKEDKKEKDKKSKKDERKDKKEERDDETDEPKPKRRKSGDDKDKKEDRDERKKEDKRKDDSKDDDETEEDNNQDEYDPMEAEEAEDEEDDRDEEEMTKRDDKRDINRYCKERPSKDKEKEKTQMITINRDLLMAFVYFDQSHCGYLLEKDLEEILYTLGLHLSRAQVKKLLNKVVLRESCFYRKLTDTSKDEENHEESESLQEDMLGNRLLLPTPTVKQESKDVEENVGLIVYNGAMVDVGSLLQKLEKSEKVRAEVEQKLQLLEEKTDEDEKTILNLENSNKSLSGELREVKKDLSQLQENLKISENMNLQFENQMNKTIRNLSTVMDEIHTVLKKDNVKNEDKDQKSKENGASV
UniProt Q92851: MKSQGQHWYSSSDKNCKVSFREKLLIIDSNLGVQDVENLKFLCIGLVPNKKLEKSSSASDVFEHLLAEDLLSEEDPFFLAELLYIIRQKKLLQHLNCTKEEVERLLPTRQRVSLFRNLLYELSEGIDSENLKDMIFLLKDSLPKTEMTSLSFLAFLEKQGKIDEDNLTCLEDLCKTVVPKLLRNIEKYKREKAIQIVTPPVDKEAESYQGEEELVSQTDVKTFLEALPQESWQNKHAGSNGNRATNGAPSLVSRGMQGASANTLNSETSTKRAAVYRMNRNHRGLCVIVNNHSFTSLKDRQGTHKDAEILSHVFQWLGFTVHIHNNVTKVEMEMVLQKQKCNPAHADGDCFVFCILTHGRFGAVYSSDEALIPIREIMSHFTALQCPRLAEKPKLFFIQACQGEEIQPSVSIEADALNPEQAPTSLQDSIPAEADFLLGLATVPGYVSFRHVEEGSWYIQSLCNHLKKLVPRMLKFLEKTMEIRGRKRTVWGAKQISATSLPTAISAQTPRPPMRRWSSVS
UniProt Q96A19: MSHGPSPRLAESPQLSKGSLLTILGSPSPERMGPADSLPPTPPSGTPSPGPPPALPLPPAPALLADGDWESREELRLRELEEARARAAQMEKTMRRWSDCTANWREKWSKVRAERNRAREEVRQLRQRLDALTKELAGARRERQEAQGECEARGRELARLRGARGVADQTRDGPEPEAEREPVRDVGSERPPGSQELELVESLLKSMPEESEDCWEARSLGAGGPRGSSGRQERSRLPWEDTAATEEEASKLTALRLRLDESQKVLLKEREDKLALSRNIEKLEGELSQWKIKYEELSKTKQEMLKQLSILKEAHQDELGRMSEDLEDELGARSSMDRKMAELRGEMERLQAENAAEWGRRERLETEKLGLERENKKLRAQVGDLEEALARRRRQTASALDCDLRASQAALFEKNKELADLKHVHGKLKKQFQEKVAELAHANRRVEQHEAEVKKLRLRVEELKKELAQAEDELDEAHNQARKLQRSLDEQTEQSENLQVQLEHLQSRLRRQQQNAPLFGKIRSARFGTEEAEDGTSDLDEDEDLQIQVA
UniProt P08174: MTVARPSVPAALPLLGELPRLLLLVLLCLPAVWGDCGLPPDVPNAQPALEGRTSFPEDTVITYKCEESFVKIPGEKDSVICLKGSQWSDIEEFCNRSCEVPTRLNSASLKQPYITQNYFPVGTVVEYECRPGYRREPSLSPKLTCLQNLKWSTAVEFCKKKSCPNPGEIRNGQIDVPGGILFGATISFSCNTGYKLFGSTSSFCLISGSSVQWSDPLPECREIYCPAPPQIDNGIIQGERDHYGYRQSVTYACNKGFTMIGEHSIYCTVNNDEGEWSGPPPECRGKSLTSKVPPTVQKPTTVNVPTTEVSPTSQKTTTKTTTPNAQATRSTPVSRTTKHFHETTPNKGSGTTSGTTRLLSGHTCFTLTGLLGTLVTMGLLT
UniProt O14618: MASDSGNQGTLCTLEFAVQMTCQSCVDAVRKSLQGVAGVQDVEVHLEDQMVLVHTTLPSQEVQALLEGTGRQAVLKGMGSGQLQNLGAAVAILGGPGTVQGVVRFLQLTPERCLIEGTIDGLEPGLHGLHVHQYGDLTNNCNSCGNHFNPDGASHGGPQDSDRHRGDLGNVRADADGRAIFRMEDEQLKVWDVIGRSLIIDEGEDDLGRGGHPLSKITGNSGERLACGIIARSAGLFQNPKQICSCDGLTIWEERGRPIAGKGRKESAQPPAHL
UniProt Q96A33: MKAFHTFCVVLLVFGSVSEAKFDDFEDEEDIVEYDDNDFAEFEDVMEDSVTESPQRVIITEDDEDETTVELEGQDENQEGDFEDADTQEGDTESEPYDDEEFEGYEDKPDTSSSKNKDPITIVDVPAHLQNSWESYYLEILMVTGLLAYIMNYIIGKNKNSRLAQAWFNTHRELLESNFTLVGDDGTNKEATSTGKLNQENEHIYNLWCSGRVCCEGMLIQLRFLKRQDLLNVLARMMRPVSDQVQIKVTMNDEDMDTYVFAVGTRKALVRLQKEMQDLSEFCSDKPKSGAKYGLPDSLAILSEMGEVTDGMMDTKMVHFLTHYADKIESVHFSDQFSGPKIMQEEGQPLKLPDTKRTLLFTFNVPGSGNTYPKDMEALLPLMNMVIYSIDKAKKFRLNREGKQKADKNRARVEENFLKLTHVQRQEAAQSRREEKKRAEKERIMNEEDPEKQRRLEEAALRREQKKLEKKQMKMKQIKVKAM
UniProt A6NHX0: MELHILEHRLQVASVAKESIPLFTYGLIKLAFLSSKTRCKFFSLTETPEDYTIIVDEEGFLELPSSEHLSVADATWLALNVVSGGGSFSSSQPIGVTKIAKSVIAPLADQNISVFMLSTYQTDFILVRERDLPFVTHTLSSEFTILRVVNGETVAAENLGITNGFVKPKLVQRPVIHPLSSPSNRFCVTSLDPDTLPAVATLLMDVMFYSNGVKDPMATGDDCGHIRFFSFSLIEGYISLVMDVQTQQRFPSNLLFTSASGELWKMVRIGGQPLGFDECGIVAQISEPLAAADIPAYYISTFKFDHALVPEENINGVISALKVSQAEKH
UniProt O95067, whole entry, looked up: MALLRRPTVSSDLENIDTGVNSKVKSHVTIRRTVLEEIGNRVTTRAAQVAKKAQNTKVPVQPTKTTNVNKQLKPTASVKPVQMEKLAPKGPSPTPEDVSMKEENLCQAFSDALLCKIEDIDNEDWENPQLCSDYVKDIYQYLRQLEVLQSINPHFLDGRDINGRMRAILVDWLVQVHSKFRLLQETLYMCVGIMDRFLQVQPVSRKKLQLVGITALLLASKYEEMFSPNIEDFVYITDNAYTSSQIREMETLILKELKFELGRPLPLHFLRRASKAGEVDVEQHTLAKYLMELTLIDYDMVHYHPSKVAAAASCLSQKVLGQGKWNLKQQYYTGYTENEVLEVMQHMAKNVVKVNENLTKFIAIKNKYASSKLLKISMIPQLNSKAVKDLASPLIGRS
UniProt P42574: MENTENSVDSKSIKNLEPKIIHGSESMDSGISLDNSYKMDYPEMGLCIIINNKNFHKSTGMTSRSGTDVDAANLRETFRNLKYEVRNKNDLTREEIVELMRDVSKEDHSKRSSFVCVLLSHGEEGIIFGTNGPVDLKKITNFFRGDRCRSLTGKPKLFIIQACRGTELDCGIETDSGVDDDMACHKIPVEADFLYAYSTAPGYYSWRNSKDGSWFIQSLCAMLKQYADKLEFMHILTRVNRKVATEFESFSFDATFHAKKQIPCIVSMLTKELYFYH
UniProt P19397: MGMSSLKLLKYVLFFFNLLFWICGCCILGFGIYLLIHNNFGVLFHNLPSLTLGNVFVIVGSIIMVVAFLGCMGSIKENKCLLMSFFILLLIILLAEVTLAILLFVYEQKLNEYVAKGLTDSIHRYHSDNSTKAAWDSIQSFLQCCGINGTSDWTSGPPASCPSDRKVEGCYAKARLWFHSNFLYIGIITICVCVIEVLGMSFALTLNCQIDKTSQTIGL
UniProt Q9Y2V2: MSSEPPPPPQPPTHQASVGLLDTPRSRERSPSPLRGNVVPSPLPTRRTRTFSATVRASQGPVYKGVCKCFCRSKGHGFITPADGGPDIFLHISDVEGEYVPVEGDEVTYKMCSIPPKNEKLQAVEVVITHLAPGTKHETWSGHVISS
UniProt O95400: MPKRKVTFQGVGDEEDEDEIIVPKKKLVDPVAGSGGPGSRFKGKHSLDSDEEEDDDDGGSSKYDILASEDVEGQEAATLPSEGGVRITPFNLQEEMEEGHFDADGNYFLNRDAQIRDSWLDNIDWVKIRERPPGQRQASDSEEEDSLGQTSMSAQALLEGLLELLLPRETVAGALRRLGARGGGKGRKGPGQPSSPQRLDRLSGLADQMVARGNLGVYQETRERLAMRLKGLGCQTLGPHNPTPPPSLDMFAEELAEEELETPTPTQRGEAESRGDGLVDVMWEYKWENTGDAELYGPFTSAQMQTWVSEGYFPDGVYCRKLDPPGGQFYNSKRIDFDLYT
UniProt P55212: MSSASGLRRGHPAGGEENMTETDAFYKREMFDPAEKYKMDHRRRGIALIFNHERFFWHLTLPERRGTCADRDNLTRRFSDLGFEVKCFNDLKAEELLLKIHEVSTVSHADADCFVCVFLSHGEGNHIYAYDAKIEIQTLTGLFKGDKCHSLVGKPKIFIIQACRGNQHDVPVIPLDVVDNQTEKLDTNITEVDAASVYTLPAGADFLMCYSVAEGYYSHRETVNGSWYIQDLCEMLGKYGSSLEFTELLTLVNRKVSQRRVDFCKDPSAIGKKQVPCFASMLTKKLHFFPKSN
UniProt Q6PII3: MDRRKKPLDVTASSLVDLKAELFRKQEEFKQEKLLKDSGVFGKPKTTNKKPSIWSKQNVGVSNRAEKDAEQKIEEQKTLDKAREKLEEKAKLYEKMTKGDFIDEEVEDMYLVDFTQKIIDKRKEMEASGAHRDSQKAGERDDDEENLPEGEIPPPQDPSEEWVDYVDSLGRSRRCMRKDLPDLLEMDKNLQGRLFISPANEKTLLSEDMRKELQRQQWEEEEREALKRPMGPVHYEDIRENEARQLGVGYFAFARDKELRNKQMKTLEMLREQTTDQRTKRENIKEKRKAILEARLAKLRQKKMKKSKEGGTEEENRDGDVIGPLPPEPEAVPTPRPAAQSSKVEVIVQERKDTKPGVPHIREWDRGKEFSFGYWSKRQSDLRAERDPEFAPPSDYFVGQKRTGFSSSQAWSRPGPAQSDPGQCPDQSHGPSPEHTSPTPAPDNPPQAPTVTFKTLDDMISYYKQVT

log2 fold change, inactive:
CASP2 (UniProt P42575) 0.003
CCNC (UniProt P24863) 0.029
CCDC51 (UniProt Q96ER9) -0.046
CCNDBP1 (UniProt O95273) 0.006
CCAR1 (UniProt Q8IX12) 0.001
CARS isoform 3 (UniProt P49589) 0.008
CASP10 isoform 4 (UniProt Q92851) -0.016
CCDC102A (UniProt Q96A19) -0.036
CD55 isoform 7 (UniProt P08174) -0.002
CCS (UniProt O14618) -0.032
CBR4 (UniProt Q8N4T8) 0.012
CCDC47 (UniProt Q96A33) -0.007
CASTOR2 (UniProt A6NHX0) 0.036
CBLL1 (UniProt Q75N03) -0.025
CCNB2 (UniProt O95067) 0.044
CBR1 (UniProt P16152) 0.006
CCT5 (UniProt P48643) 0.003
CAVIN2 (UniProt O95810) 0.005
CBX1 (UniProt P83916) -0.018
CASP3 (UniProt P42574) -0.027
CD53 (UniProt P19397) 0.007
CCNYL1 (UniProt Q8N7R7) -0.005
CD47 (UniProt Q08722) -0.022
CARHSP1 (UniProt Q9Y2V2) -0.049
CCAR2 (UniProt Q8N163) 0.02
CCDC88A (UniProt Q3V6T2) -0.01
CD63 (UniProt P08962) 0.077
CBL (UniProt P22681) -0.003
CC2D1A (UniProt Q6P1N0) -0.011
CAT (UniProt P04040) 0.009
CD2BP2 (UniProt O95400) 0.007
CASP6 (UniProt P55212) -0.01
CCDC174 (UniProt Q6PII3) 0.034
CCDC88C (UniProt Q9P219) -0.157
CD81 (UniProt P60033) -0.052
CD80 (UniProt P33681) -0.162

2 neighbouring records out of the list so far:
log2 fold change, inactive:
CARS isoform 3 (UniProt P49589) 0.008
CASP10 isoform 4 (UniProt Q92851) -0.016
